Experimental data: PMC7521518
No constants are given. Whether binding was seen depends on the method and setting. Binding seen in cells or lysates may run through a third protein. Some binding calls cover weakened binding; strength is not graded here. Each block holds one molecule with its values, some of them ahead of it.

Sequences of proteins named here, by UniProt entry; tags and fusion partners are left off.
UniProt Q13485: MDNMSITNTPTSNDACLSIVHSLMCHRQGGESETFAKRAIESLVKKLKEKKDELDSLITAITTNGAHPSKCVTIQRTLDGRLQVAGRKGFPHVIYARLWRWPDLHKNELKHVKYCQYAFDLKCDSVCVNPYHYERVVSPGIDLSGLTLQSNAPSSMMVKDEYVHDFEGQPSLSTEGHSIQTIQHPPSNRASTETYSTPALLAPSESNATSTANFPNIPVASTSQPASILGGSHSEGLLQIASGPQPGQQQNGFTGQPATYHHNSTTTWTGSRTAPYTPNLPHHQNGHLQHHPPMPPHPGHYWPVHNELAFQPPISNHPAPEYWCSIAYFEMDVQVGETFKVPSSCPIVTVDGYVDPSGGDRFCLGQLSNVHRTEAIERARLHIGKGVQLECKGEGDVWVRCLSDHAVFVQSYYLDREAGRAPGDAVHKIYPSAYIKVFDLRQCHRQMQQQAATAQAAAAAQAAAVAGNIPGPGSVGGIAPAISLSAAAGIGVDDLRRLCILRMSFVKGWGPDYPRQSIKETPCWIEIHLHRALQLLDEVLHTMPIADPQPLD

Tests used:
[1] = target: T1, DUSP4 protein (over-expressed in HCT116 cells) (UniProt Q13115); assay: co-IP; forward and reverse co-IP in lysate (RIPA buffer) of DUSP4 over-expressed HCT116 cells; antibody-conjugated magnetic beads incubated with lysate 1 hour at room temperature
T1 sequence: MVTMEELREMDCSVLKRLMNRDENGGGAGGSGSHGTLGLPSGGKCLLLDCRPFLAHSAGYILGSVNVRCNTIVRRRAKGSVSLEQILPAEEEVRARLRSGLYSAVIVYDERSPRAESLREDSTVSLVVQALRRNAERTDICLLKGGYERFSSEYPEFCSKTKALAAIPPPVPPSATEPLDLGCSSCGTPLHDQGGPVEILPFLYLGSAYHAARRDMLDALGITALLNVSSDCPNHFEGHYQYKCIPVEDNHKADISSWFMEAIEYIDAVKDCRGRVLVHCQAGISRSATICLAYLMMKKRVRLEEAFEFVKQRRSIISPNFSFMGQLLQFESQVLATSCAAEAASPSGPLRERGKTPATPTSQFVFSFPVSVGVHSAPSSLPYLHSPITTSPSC

[2] = target: Smad4 protein (human (endogenous in SW480 and HCT116)) (UniProt Q13485); assay: co-IP; SW480 cell lysate (RIPA buffer); antibody-conjugated magnetic beads incubated with lysate 1 hour at room temperature; which protein was precipitated is not told
[3] = target: Smad4 protein (human (endogenous in SW480 and HCT116)) (UniProt Q13485); assay: co-IP; forward and reverse co-IP in lysate (RIPA buffer) of DUSP4 over-expressed HCT116 cells; antibody-conjugated magnetic beads incubated with lysate 1 hour at room temperature

binding [1]: binds
Molecule: Smad4 protein (from UniProt Q13485 1-552)

binding [2]: binds
B1: DUSP4 protein (protein, UniProt Q13115 1-394)
chain: MVTMEELREMDCSVLKRLMNRDENGGGAGGSGSHGTLGLPSGGKCLLLDCRPFLAHSAGYILGSVNVRCNTIVRRRAKGSVSLEQILPAEEEVRARLRSGLYSAVIVYDERSPRAESLREDSTVSLVVQALRRNAERTDICLLKGGYERFSSEYPEFCSKTKALAAIPPPVPPSATEPLDLGCSSCGTPLHDQGGPVEILPFLYLGSAYHAARRDMLDALGITALLNVSSDCPNHFEGHYQYKCIPVEDNHKADISSWFMEAIEYIDAVKDCRGRVLVHCQAGISRSATICLAYLMMKKRVRLEEAFEFVKQRRSIISPNFSFMGQLLQFESQVLATSCAAEAASPSGPLRERGKTPATPTSQFVFSFPVSVGVHSAPSSLPYLHSPITTSPSC

binding [3]: binds
B2: DUSP4 protein (over-expressed in HCT116 cells) (protein, UniProt Q13115 1-394)
chain: MVTMEELREMDCSVLKRLMNRDENGGGAGGSGSHGTLGLPSGGKCLLLDCRPFLAHSAGYILGSVNVRCNTIVRRRAKGSVSLEQILPAEEEVRARLRSGLYSAVIVYDERSPRAESLREDSTVSLVVQALRRNAERTDICLLKGGYERFSSEYPEFCSKTKALAAIPPPVPPSATEPLDLGCSSCGTPLHDQGGPVEILPFLYLGSAYHAARRDMLDALGITALLNVSSDCPNHFEGHYQYKCIPVEDNHKADISSWFMEAIEYIDAVKDCRGRVLVHCQAGISRSATICLAYLMMKKRVRLEEAFEFVKQRRSIISPNFSFMGQLLQFESQVLATSCAAEAASPSGPLRERGKTPATPTSQFVFSFPVSVGVHSAPSSLPYLHSPITTSPSC
